# Reference: patent publication US20130336980A1 (Janssen / Centocor, published 2013)
# The chains behind the UniProt entries cited, without tags or fusion partners. Where a name states a change or a piece, a line headed by the entry shows the natural chain unless it says otherwise.
# UniProt Q01638: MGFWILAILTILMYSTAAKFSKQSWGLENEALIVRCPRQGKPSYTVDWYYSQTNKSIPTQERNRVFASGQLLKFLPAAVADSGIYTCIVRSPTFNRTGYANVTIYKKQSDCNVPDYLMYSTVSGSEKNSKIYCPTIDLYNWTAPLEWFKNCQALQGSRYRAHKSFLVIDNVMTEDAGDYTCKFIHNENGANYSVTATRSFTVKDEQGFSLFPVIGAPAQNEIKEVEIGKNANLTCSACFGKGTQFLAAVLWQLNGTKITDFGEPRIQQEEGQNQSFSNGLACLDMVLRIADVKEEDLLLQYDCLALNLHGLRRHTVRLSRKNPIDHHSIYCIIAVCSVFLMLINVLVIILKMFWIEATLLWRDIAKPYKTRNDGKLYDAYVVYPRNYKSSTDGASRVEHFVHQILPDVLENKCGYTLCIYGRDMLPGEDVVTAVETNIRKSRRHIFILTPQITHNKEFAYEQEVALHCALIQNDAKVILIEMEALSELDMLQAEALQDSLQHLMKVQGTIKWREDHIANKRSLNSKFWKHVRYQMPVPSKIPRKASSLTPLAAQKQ
# Changes are numbered by the printed parent chain. Results are given in words; binding and its absence hold for the method and conditions named. Some entries that bind do so weakly or less than the wild type.
# B1: STLM213 (antibody, V domains shown)
# VH: EVQLLESGGGLVQPGGSLRLSCAASGFTFSFYDMIWVRQAPGKGLEWVSTIRGEGGDTNYADSVKGRFTISRDNSKNTLYLQMNSLRAEDTAVYYCARDPWSTEGSFFVLDYWGQGTLVTVSS
# VL: EIVLTQSPATLSLSPGERATLSCRASQSVDDDLAWYQQKPGQAPRLLIYDASNRATGIPARFSGSGSGTDFTLTISSLEPEDFAVYYCQQYIDAPLTFGQGTKVEIK
# B2: STLM103 (antibody, V domains shown)
# VH: B1 VH with I35F, T50S, D57R, N59D
# VL: B1 VL with D93G, L96I
# B3: STLM107 (antibody, V domains shown)
# VH: B1 VH with F31D, D33A, I35F, T50A, R52E, D57E
# VL: B1 VL with D93G, L96I
# B4: STLM108 (antibody, V domains shown)
# VH: B1 VH with F31I, R52K, D57G, N59Y
# VL: B1 VL with D93G, L96I
# B5: STLM124 (antibody, V domains shown)
# VH: B1 VH with F31I, R52K, D57G, N59Y
# VL: B1 VL with D93T
# B6: STLM206 (antibody, V domains shown)
# VH: B1 VH with F31I, D57S, N59Y
# VL: B1 VL with D93T
# notes: IgG; VH3-23 / Vk-L6 frameworks
# B7: STLM207 (antibody, V domains shown)
# VH: B1 VH with F31S, D57T, N59A
# VL: B1 VL with D93T
# B8: STLM209 (antibody, V domains shown)
# VH: B1 VH with F31I, D57G, N59S
# VL: B1 VL with D93T
# B9: STLM210 (antibody, V domains shown)
# VH: B1 VH with F31D, Y32D, D33A, T50Y, R52G, E54N, D57T, N59Y
# VL: EIVLTQSPATLSLSPGERATLSCRASQSVDDDLAWYQQKPGQAPRLLIYDASNRATGIPARFSGSGSGTDFTLTISSLEPEDFAVYYCQQYNDAITFGQGTKVEIK
# B10: STLM211 (antibody, V domains shown)
# VH: B1 VH with F31G, D33A, T50Y, R52E, D57E, N59Y
# VL: B9 VL
# B11: STLM212 (antibody, V domains shown)
# VH: B1 VH with F31V, D57G, N59Y
# VL: B9 VL
# B12: STLM214 (antibody, V domains shown)
# VH: B1 VH with F31S, I35F, T50D, R52K, D57R, N59A
# VL: B1 VL
# B13: STLM215 (antibody, V domains shown)
# VH: B1 VH with F31S, I35F, T50A, R52A, D57R, N59Y
# VL: B1 VL with D93G, L96I
# B14: STLM216 (antibody, V domains shown)
# VH: B1 VH with F31S, I35F, T50D, R52K, D57A
# VL: B1 VL with D93G, L96I
# B15: STLM217 (antibody, V domains shown)
# VH: B1 VH with F31V, I35F, T50D, R52K, D57E, N59S
# VL: B1 VL with D93G, L96I
# B16: STLM218 (antibody, V domains shown)
# VH: B1 VH with F31V, Y32D, D33S, I35F, T50S, R52E, E54N, D57A, N59Y
# VL: B1 VL with D93G, L96I
# B17: STLM219 (antibody, V domains shown)
# VH: B1 VH with F31G, I35F, T50D, R52G, D57S
# VL: B1 VL with D93G, L96I
# B18: STLM220 (antibody, V domains shown)
# VH: B1 VH with I35F, T50D, D57G, N59A
# VL: B1 VL with D93G, L96I
# B19: STLM221 (antibody, V domains shown)
# VH: B1 VH with F31I, I35F, T50Y
# VL: B1 VL with D93G, L96I
# B20: STLM222 (antibody, V domains shown)
# VH: B1 VH with F31I, D33S, I35F, T50D, R52G, D57G, N59S
# VL: B1 VL with D93G, L96I
# Target: human ST2L extracellular domain with C-terminal His6 tag (human) (UniProt Q01638)
# Assay: binding to human/mouse chimeras
row,Binder,binding
1,B1,binds
2,B2,binds
3,B3,binds
4,B4,binds
5,B5,binds
6,B6,binds
7,B7,binds
8,B8,binds
9,B9,binds
10,B10,binds
11,B11,binds
12,B12,binds
13,B13,binds
14,B14,binds
15,B15,binds
16,B16,binds
17,B17,binds
18,B18,binds
19,B19,binds
20,B20,binds

# Target: human ST2L extracellular domain with C-terminal His6 tag (human) (UniProt Q01638)
# Assay: as described for the competition assays
row,Binder,binding
1,B1,binds

# Target: human ST2L extracellular domain with C-terminal His6 tag (human) (UniProt Q01638)
# Assay: MSD electrochemiluminescence competition assay on plate-coated ST2L-ECD; unlabeled antibody titrated against 10 nM sulfo-tag labeled C2494
row,Binder,binding
1,B1,binds
